Substitutions are numbered along the chain they refer to. No constants are given. Whether binding was seen depends on the method and setting. Binding seen in cells or lysates may run through a third protein. Some results given as binding are weak or reduced against the parent protein; the word gives no strength. For part of these data: Where a sequence is shown, tags or fusion partners need not be part of it.

Sequences of proteins named here, by UniProt entry; tags and fusion partners are left off.
UniProt Q8IYW5: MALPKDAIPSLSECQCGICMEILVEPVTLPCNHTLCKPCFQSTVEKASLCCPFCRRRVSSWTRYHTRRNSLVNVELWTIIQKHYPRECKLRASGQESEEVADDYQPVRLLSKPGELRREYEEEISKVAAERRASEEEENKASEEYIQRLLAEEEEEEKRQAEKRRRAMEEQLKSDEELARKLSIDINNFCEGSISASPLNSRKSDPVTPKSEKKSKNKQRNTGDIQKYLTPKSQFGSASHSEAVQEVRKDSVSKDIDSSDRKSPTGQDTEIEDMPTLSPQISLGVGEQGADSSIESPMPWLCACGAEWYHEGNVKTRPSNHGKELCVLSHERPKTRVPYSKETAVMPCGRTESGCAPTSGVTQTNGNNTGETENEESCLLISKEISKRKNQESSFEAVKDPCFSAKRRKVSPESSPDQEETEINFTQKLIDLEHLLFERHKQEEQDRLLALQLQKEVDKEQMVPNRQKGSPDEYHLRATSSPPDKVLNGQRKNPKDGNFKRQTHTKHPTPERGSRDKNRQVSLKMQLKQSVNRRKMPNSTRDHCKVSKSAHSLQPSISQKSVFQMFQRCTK

These results are taken from article PMC8242032, “Non-canonical function of DGCR8 in DNA double-strand break repair signaling and tumor radioresistance” (Nature Communications, 2021).

The target in assay [1] is T1, MYC-DGCR8 (wild-type, full-length) (human) (UniProt Q8WYQ5).
T1 sequence: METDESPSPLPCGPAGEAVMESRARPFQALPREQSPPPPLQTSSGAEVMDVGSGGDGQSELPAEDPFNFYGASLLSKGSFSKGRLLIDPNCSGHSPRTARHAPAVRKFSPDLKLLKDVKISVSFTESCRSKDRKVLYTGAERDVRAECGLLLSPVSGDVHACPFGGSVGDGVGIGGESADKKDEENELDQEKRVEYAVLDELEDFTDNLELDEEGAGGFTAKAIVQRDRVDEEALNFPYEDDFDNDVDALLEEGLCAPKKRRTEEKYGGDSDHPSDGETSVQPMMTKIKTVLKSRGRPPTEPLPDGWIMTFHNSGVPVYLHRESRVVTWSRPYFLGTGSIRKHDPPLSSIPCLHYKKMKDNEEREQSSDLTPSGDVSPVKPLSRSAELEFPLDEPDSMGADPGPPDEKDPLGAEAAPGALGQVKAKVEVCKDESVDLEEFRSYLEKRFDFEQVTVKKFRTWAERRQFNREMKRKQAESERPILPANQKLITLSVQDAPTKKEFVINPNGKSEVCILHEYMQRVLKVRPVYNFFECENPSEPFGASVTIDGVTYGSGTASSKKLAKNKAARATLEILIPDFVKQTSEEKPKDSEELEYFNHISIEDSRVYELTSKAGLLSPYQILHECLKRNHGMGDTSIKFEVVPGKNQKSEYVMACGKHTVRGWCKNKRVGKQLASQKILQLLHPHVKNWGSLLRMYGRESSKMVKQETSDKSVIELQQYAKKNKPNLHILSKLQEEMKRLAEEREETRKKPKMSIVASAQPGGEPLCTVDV
Description: co-IP; MYC-tagged DGCR8 (WT, S677A or S677D) overexpressed in LM2 cells, with or without IR (8 Gy followed by 1 h or 8 h); pulldown with anti-MYC agarose beads, 4 °C, 2 h; immunoblotting.

For assay [2], the target named is T2, DGCR8 (endogenous) (human (endogenous in LM2)) (UniProt Q8WYQ5).
T2 sequence: T1 sequence
Description: co-IP; chromatin fractions of LM2 cells (IR 8 Gy followed by 1 h), with or without MNase treatment, immunoprecipitated with a DGCR8-specific antibody.

The target of assay [3] is T1, MYC-DGCR8 (wild-type, full-length) (human). Description: co-IP; DGCR8 co-IP in HEK293T cells with or without IR (Supplementary Fig. 2c; details not shown).
Assay [4] has the same target. The assay is described as follows: co-IP; HEK293T cells co-transfected with MYC-DGCR8 and SFB-tagged USP36 or USP51; after 48 h immunoprecipitated with anti-MYC beads; immunoblotting for FLAG and MYC.
Assay [5] concerns the target T2, DGCR8 (endogenous) (human (endogenous in LM2)). The assay is described as follows: co-IP; endogenous proteins; DGCR8 immunoprecipitated with a DGCR8-specific antibody from LM2 (and LM2-R) cells, with or without 8 Gy IR followed by 8 h; CHAPS buffer.
In assay [6] the target is T3, MYC-DGCR8 S677D (phosphomimetic mutant) (human) (UniProt Q8WYQ5).
T3 sequence: T1 sequence with S677D
The assay is described as follows: co-IP; MYC-tagged DGCR8 (WT, S677A or S677D) overexpressed in LM2 cells, with or without IR (8 Gy followed by 1 h or 8 h); pulldown with anti-MYC agarose beads, 4 °C, 2 h; immunoblotting.

Regarding “RNF168 (endogenous) (from UniProt Q8IYW5 1-571) (enzyme)”, the binding entry in assay [1], in assay [2] and in assay [3] was “binds” in each case.

B1: SFB-USP51 (enzyme, human, UniProt Q70EK9 1-711, looked up)
chain: MAQVRETSLPSGSGVRWISGGGGGASPEEAVEKAGKMEEAAAGATKASSRREAEEMKLEPLQEREPAPEENLTWSSSGGDEKVLPSIPLRCHSSSSPVCPRRKPRPRPQPRARSRSQPGLSAPPPPPARPPPPPPPPPPPAPRPRAWRGSRRRSRPGSRPQTRRSCSGDLDGSGDPGGLGDWLLEVEFGQGPTGCSHVESFKVGKNWQKNLRLIYQRFVWSGTPETRKRKAKSCICHVCSTHMNRLHSCLSCVFFGCFTEKHIHKHAETKQHHLAVDLYHGVIYCFMCKDYVYDKDIEQIAKETKEKILRLLTSTSTDVSHQQFMTSGFEDKQSTCETKEQEPKLVKPKKKRRKKSVYTVGLRGLINLGNTCFMNCIVQALTHIPLLKDFFLSDKHKCIMTSPSLCLVCEMSSLFHAMYSGSRTPHIPYKLLHLIWIHAEHLAGYRQQDAHEFLIAILDVLHRHSKDDSGGQEANNPNCCNCIIDQIFTGGLQSDVTCQACHSVSTTIDPCWDISLDLPGSCATFDSQNPERADSTVSRDDHIPGIPSLTDCLQWFTRPEHLGSSAKIKCNSCQSYQESTKQLTMKKLPIVACFHLKRFEHVGKQRRKINTFISFPLELDMTPFLASTKESRMKEGQPPTDCVPNENKYSLFAVINHHGTLESGHYTSFIRQQKDQWFSCDDAIITKATIEDLLYSEGYLLFYHKQGLEKD
notes: USP51, human DUB ORF in the pBabe-SFB vector; also called SFB-tagged USP51; source: HEK293T, transfected, in lysate; purified from transfected HEK293T cells
In the case of B1, the binding result in assay [4] is recorded as “binds”.

B2: USP51 (endogenous) (enzyme, UniProt Q70EK9 1-711)
chain: B1 chain
Regarding B2, the binding result in assay [5], in assay [1] and in assay [6] was “binds” each time.

B3: SFB-USP36 (enzyme, UniProt Q9P275 1-1123)
chain: MPIVDKLKEALKPGRKDSADDGELGKLLASSAKKVLLQKIEFEPASKSFSYQLEALKSKYVLLNPKTEGASRHKSGDDPPARRQGSEHTYESCGDGVPAPQKVLFPTERLSLRWERVFRVGAGLHNLGNTCFLNATIQCLTYTPPLANYLLSKEHARSCHQGSFCMLCVMQNHIVQAFANSGNAIKPVSFIRDLKKIARHFRFGNQEDAHEFLRYTIDAMQKACLNGCAKLDRQTQATTLVHQIFGGYLRSRVKCSVCKSVSDTYDPYLDVALEIRQAANIVRALELFVKADVLSGENAYMCAKCKKKVPASKRFTIHRTSNVLTLSLKRFANFSGGKITKDVGYPEFLNIRPYMSQNNGDPVMYGLYAVLVHSGYSCHAGHYYCYVKASNGQWYQMNDSLVHSSNVKVVLNQQAYVLFYLRIPGSKKSPEGLISRTGSSSLPGRPSVIPDHSKKNIGNGIISSPLTGKRQDSGTMKKPHTTEEIGVPISRNGSTLGLKSQNGCIPPKLPSGSPSPKLSQTPTHMPTILDDPGKKVKKPAPPQHFSPRTAQGLPGTSNSNSSRSGSQRQGSWDSRDVVLSTSPKLLATATANGHGLKGNDESAGLDRRGSSSSSPEHSASSDSTKAPQTPRSGAAHLCDSQETNCSTAGHSKTPPSGADSKTVKLKSPVLSNTTTEPASTMSPPPAKKLALSAKKASTLWRATGNDLRPPPPSPSSDLTHPMKTSHPVVASTWPVHRARAVSPAPQSSSRLQPPFSPHPTLLSSTPKPPGTSEPRSCSSISTALPQVNEDLVSLPHQLPEASEPPQSPSEKRKKTFVGEPQRLGSETRLPQHIREATAAPHGKRKRKKKKRPEDTAASALQEGQTQRQPGSPMYRREGQAQLPAVRRQEDGTQPQVNGQQVGCVTDGHHASSRKRRRKGAEGLGEEGGLHQDPLRHSCSPMGDGDPEAMEESPRKKKKKKRKQETQRAVEEDGHLKCPRSAKPQDAVVPESSSCAPSANGWCPGDRMGLSQAPPVSWNGERESDVVQELLKYSSDKAYGRKVLTWDGKMSAVSQDAIEDSRQARTETVVDDWDEEFDRGKEKKIKKFKREKRRNFNAFQKLQTRRNFWSVTHPAKAASLSYRR
For B3, the binding result in assay [4] is given as “binds”.

B4: USP36 (endogenous) (enzyme, UniProt Q9P275 1-1123)
chain: B3 chain
As for B4, the binding entry in assay [5] is recorded as “binds”.
